Test results from paper PMC4191344, “Identification and characterization of Aβ peptide interactors in Alzheimer’s disease by structural approaches” (Frontiers in Aging Neuroscience, 2014).
Entries after “also recorded” stand apart in the source; their conditions may differ.

Tested on: EP24.15
Test: Aβ cleavage assay with purified EP24.15, MALDI-TOF MS
Format: biochemical
Conditions: purified wild type EP24.15, 300 µM Aβ peptide, pH 7.4, 37°C; mass spectrometry

Substance: EP24.15: soluble, 77 kD metalloendopeptidase in the family of zinc metallopeptidases
- catabolism of Aβ by EP24.15 (in words): ability to catabolize Aβ 1–42; also recorded: direct degradation of Aβ
